{"source": "PubChem BioAssay AID743121 (NCATS, 2013)", "screen": "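Partners whose loss is lethal together with topoisomerase I blockade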 (primary screen)", "system": "MDA-MB-231 cells, a human breast cancer line", "reagents": "single siRNA against human genes, 20 nM siRNA (0.8 pmol per well)", "timing": "120 h (drug added 48 h after transfection, read 72 h later)", "treatment": "camptothecin 20 nM (about EC30) for 72 h; vehicle 0.1% DMSO in parallel plates", "read-out": "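Cell viability by ATP luminescence (CellTiter-Glo) as % of non-targeting siRNA wells, and the log2 ratio of viability without drug over viability with camptothecin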", "scale": "log2 vehicle/camptothecin viability: higher = stronger sensitisation to camptothecin", "hit rule": "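Each gene scored by redundant siRNA activity (RSA) over its individual siRNA ratios; a gene is called active at p < 0.001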", "note": "Here is an unselected part of about 26,000 deposited reagents. Over the whole deposit, 167 (0.63%) are marked active. 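Calls are per gene from RSA p-values that are not deposited; an individual active-marked siRNA can sensitise only weakly.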 Entries without a mark were called inactive. The numbers tell different reagents against one gene apart. Not all columns of the deposit are shown. No sequences are given here."}
{"gene symbol": "NPBWR2 (neuropeptides B and W receptor 2)", "reagent no.": 1, "log2 vehicle/camptothecin viability": 0.531}
{"gene symbol": "NPBWR2 (neuropeptides B and W receptor 2)", "reagent no.": 2, "log2 vehicle/camptothecin viability": 0.156}
{"gene symbol": "NPBWR2 (neuropeptides B and W receptor 2)", "reagent no.": 3, "log2 vehicle/camptothecin viability": -0.0541}
{"gene symbol": "NPBWR2 (neuropeptides B and W receptor 2)", "reagent no.": 4, "log2 vehicle/camptothecin viability": 0.0209}
{"gene symbol": "AICDA (activation induced cytidine deaminase)", "reagent no.": 1, "log2 vehicle/camptothecin viability": -0.446}
{"gene symbol": "AICDA (activation induced cytidine deaminase)", "reagent no.": 2, "log2 vehicle/camptothecin viability": -0.242}
{"gene symbol": "AICDA (activation induced cytidine deaminase)", "reagent no.": 3, "log2 vehicle/camptothecin viability": -0.176}
{"gene symbol": "AICDA (activation induced cytidine deaminase)", "reagent no.": 4, "log2 vehicle/camptothecin viability": 0.328}
{"gene symbol": "FZD5 (frizzled class receptor 5)", "reagent no.": 1, "log2 vehicle/camptothecin viability": -0.179}
{"gene symbol": "FZD5 (frizzled class receptor 5)", "reagent no.": 2, "log2 vehicle/camptothecin viability": 0.445}
{"gene symbol": "FZD5 (frizzled class receptor 5)", "reagent no.": 3, "log2 vehicle/camptothecin viability": -0.693}
{"gene symbol": "FZD5 (frizzled class receptor 5)", "reagent no.": 4, "log2 vehicle/camptothecin viability": 0.011}
{"gene symbol": "RPA2 (replication protein A2)", "reagent no.": 1, "log2 vehicle/camptothecin viability": -0.334}
{"gene symbol": "RPA2 (replication protein A2)", "reagent no.": 2, "log2 vehicle/camptothecin viability": -0.184}
{"gene symbol": "RPA2 (replication protein A2)", "reagent no.": 3, "log2 vehicle/camptothecin viability": -0.178}
{"gene symbol": "RPA2 (replication protein A2)", "reagent no.": 4, "log2 vehicle/camptothecin viability": 0.527}
{"gene symbol": "OR2B2 (olfactory receptor family 2 subfamily B member 2)", "reagent no.": 1, "log2 vehicle/camptothecin viability": -0.0618}
{"gene symbol": "OR2B2 (olfactory receptor family 2 subfamily B member 2)", "reagent no.": 2, "log2 vehicle/camptothecin viability": 0.648}
{"gene symbol": "OR2B2 (olfactory receptor family 2 subfamily B member 2)", "reagent no.": 3, "log2 vehicle/camptothecin viability": -0.309}
{"gene symbol": "OR2B2 (olfactory receptor family 2 subfamily B member 2)", "reagent no.": 4, "log2 vehicle/camptothecin viability": -0.199}
{"gene symbol": "NR2F2 (nuclear receptor subfamily 2 group F member 2)", "reagent no.": 1, "log2 vehicle/camptothecin viability": 0.163}
{"gene symbol": "NR2F2 (nuclear receptor subfamily 2 group F member 2)", "reagent no.": 2, "log2 vehicle/camptothecin viability": -0.287}
{"gene symbol": "NR2F2 (nuclear receptor subfamily 2 group F member 2)", "reagent no.": 3, "log2 vehicle/camptothecin viability": -0.289}
{"gene symbol": "NR2F2 (nuclear receptor subfamily 2 group F member 2)", "reagent no.": 4, "log2 vehicle/camptothecin viability": -0.0862}
{"gene symbol": "GRM3 (glutamate metabotropic receptor 3)", "reagent no.": 1, "log2 vehicle/camptothecin viability": -0.692}
{"gene symbol": "GRM3 (glutamate metabotropic receptor 3)", "reagent no.": 2, "log2 vehicle/camptothecin viability": -0.241}
{"gene symbol": "GRM3 (glutamate metabotropic receptor 3)", "reagent no.": 3, "log2 vehicle/camptothecin viability": 0.0477}
{"gene symbol": "GRM3 (glutamate metabotropic receptor 3)", "reagent no.": 4, "log2 vehicle/camptothecin viability": -0.0859}
{"gene symbol": "LMBR1L (limb development membrane protein 1 like)", "reagent no.": 1, "log2 vehicle/camptothecin viability": 0.0281}
{"gene symbol": "LMBR1L (limb development membrane protein 1 like)", "reagent no.": 2, "log2 vehicle/camptothecin viability": -0.115}
{"gene symbol": "LMBR1L (limb development membrane protein 1 like)", "reagent no.": 3, "log2 vehicle/camptothecin viability": -0.0603}
{"gene symbol": "LMBR1L (limb development membrane protein 1 like)", "reagent no.": 4, "log2 vehicle/camptothecin viability": -0.135}
{"gene symbol": "UCK1 (uridine-cytidine kinase 1)", "reagent no.": 1, "log2 vehicle/camptothecin viability": -0.306}
{"gene symbol": "UCK1 (uridine-cytidine kinase 1)", "reagent no.": 2, "log2 vehicle/camptothecin viability": 2}
{"gene symbol": "UCK1 (uridine-cytidine kinase 1)", "reagent no.": 3, "log2 vehicle/camptothecin viability": 0.181}
